Results taken from the supplement of paper PMC12067093, “Discovery and optimisation of a covalent ligand for TRIM25 and its application to targeted protein ubiquitination” (Chemical Science, 2025).
The list shows a part of the results.

By UniProt entry, the sequences of proteins in these tests, tags left out. Where a name states a change or a piece, a line headed by the entry shows the natural chain unless it says otherwise.
UniProt Q9UPN4: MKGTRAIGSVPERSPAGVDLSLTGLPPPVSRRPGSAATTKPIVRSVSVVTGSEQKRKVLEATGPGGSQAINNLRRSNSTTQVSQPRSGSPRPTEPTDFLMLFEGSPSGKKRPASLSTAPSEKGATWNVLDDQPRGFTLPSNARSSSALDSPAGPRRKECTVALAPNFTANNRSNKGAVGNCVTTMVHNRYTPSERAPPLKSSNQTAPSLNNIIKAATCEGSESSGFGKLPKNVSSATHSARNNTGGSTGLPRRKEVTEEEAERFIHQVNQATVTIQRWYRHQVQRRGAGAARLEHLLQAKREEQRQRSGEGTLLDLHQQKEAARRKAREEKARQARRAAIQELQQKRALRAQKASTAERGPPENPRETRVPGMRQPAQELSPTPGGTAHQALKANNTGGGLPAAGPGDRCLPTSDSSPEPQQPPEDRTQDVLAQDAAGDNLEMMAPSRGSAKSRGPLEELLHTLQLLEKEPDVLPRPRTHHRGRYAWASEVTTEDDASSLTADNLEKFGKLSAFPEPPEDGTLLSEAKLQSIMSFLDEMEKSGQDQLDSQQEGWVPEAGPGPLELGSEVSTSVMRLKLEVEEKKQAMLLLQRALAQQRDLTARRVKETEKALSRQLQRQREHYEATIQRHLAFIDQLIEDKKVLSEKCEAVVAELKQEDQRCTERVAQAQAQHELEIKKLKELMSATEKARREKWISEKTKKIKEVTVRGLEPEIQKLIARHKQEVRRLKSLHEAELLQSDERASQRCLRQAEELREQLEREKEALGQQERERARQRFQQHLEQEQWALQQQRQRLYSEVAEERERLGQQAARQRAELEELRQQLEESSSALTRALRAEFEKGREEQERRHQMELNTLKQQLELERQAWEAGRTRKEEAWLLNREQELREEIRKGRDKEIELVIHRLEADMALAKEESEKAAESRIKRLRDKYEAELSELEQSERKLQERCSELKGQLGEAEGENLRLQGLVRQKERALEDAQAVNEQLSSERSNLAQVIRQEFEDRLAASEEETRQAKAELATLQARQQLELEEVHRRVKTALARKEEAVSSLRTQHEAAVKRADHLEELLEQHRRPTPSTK
UniProt Q8TEP8: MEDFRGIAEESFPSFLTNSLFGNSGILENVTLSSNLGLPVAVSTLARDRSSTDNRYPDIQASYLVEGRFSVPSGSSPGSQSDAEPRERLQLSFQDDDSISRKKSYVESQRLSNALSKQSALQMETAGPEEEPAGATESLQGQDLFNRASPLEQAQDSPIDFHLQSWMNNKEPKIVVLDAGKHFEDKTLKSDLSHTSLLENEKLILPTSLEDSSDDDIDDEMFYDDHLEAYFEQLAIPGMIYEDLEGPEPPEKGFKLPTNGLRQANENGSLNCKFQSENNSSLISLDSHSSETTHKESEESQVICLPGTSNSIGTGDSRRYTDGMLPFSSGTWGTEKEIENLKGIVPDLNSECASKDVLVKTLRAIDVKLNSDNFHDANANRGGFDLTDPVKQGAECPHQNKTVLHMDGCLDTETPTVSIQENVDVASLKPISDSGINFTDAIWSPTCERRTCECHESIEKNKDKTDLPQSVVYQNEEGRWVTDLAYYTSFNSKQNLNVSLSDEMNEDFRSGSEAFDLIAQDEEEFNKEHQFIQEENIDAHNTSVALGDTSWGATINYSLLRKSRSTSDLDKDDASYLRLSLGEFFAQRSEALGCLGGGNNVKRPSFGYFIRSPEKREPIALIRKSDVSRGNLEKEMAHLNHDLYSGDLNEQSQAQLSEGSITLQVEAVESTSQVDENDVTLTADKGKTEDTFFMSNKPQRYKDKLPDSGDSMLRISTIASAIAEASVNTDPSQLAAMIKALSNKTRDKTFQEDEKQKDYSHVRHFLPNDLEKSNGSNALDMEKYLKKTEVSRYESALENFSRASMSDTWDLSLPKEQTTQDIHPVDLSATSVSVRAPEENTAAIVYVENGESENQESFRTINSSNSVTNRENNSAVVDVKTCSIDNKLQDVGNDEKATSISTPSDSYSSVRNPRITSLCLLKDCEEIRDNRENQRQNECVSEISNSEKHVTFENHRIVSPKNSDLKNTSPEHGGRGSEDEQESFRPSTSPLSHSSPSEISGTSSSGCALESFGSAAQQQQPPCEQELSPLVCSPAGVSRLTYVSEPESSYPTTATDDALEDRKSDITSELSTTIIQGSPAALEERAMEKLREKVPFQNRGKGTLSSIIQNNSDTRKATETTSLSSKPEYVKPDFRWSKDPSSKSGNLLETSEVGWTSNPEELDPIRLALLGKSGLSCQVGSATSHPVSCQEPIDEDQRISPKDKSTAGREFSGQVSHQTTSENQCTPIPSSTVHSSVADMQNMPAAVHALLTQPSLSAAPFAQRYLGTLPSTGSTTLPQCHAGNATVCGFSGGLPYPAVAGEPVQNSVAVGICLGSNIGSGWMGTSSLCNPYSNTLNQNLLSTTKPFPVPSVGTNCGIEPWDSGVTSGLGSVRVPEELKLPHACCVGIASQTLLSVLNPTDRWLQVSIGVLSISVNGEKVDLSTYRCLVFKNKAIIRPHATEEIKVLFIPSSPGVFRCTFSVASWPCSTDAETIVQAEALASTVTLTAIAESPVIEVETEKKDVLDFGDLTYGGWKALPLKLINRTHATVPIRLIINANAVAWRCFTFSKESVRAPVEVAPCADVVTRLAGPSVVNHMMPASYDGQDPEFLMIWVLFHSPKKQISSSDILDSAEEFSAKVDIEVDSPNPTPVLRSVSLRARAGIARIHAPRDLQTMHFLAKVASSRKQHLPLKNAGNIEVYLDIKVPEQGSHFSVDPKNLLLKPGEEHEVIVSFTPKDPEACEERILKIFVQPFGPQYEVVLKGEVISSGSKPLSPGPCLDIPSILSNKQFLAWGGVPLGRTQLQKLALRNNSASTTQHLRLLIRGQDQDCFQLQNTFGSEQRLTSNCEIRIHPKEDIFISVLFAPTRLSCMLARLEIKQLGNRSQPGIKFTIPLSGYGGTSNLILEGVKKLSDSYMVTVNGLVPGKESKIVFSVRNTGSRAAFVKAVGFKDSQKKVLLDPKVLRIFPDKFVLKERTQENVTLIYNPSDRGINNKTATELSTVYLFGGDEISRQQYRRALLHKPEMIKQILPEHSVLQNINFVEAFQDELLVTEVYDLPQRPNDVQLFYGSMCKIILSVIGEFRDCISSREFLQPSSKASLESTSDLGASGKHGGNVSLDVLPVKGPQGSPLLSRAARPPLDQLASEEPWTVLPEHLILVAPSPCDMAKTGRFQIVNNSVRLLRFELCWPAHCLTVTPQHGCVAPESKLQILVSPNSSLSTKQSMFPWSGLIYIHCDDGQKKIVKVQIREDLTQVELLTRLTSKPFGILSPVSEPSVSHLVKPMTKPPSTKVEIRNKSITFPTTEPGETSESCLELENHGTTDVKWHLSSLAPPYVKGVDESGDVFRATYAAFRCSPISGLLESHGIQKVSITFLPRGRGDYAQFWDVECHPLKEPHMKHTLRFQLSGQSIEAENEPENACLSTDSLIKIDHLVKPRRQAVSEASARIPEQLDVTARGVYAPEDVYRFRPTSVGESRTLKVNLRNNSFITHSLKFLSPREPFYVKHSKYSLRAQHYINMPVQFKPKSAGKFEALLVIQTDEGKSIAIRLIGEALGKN
UniProt P42773: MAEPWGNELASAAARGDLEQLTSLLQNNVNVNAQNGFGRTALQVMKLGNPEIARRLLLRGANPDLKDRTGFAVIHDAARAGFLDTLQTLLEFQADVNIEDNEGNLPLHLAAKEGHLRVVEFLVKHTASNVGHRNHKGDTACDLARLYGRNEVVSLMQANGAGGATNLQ
UniProt P40227, whole entry, looked up: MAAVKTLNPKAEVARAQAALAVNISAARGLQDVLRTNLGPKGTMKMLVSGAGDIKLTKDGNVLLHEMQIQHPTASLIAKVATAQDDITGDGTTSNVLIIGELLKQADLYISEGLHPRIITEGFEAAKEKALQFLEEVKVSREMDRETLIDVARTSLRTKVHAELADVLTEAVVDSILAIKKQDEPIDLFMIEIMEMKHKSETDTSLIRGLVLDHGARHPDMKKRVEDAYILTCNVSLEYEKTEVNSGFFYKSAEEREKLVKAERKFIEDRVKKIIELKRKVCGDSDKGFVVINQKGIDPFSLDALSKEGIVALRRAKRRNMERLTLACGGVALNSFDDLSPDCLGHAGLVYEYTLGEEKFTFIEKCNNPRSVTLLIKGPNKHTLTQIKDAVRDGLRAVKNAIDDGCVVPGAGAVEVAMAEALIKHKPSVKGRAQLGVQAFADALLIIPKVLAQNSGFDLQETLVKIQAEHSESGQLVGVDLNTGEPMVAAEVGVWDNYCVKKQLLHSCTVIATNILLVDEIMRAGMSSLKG

Compound: CC1Cc2ccccc2N1C(=O)C1CCCN(C1)C(=O)CCl (mixture of isomers) [TRIM25 ligand 11 (diastereomer mixture)]
Experiment: probe-labelled cysteine peptide fold change vs DMSO (competition) (log2 fold change); higher = less target engagement (more negative = stronger competition)
Details: THP-1, incubation time: 4 h
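Also: competitive chemoproteomic profiling in live THP-1 cells with an iodoacetamide desthiobiotin (IA-DTB) probe, comparing probe-labelled peptide intensities in compound-treated cells against DMSO-treated controls.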

Target	probe-labelled cysteine peptide fold change (10 µM)	probe-labelled cysteine peptide fold change (50 µM)
CEP131_Q9UPN4_218_AATCEGSESSGFGK (UniProt Q9UPN4)	0.0246	-0.156
CEP192_Q8TEP8_1828_LTSNCEIR (UniProt Q8TEP8)	0.0778	0.0772
CDKN2C_P42773_141_NHKGDTACDLAR (UniProt P42773)	-0.104	-0.0111
CCT6A_P40227_233_KRVEDAYILTCNVSLEYEK (UniProt P40227)	-0.191	-0.0734
CCT6A_P40227_233_RVEDAYILTCNVSLEYEK (UniProt P40227)	0.104	0.203
